Values of other authors, collected in patent US20210137911A1, “NOVEL CHRONOTHERAPY BASED ON CIRCADIAN RHYTHMS” (THE TRUSTEES OF THE UNIVERSITY OF PENNSYLVANIA, priority 2014, published 2021).

Settings: half-life of therapeutic compound as listed in Table 1; cited from earlier work

COC(=O)C1=C(C)NC(C)=C(C(=O)OC)C1c1ccccc1[N+](=O)[O-] [Nifedipine]
½ Life: 2 h
